# Laboratory results reported in patent publication US7112577B2, “Pharmaceutically acceptable alendronate salts in amorphous form” (Cipla Limited, priority 2001, dated 2006).
# Conditions: moisture content no greater than about 3% by weight, more preferably less than about 1%
smiles,measurement,value
"NCCCC(O)(P(=O)(O)O)P(=O)(O)O [amorphous alendronate sodium, alendronate sodium]",stability of amorphous product,stable
